{"source": "PubChem BioAssay AID540276", "about": "(National Center for Advancing Translational Sciences (NCATS), 2011)", "note": "Several values for one entry are separate records, joined by “and”; a condition that tells them apart may be missing. Equal entries are not always repeated. Among all 300,000 compounds or so, about 5,400 (1.8%) were called active. The inconclusive results got no clear call from the source; some entries with a clear call stand among them for comparison. Calls follow the shape of the full dose curve; tested in HEK293 cells. Potencies beside an inconclusive call are fits to weak or partial responses and may not hold up. Potency is read from the fitted curve at half-maximal effect.", "data": [{"experiment": "qHTS for inhibitors of binding or entry into cells for Marburg Virus", "conditions": "Marburg virus pseudotyped entry inhibition, cell reporter; series mostly up to 37.8 µM", "values": [{"smiles": "CC(C)c1ccccc1NC(=O)COC(=O)CNC(=O)c1ccc(Br)cc1", "Potency": "inconclusive: 2.82 µM [inhibitor, single point]"}, {"smiles": "Cc1csc(NC(=O)CSc2nnc(-c3ccccc3)o2)n1", "Potency": "inconclusive: 10 µM [inhibitor, partial curve, poor fit]"}, {"smiles": "CCOC(=O)c1c(NC(=O)CSc2nc(-c3ccccc3)cc(C(F)(F)F)n2)sc(C)c1C", "Potency": "inconclusive: 0.562 µM [activator, full curve, poor fit]"}, {"smiles": "c1ccc(-c2n[nH]c(-c3ccccc3)c2-c2nc3ccccc3[nH]2)cc1", "Potency": "inactive"}, {"smiles": "CCOc1ccc(CCNC(=O)Cn2nnc(-c3ccc(C(F)(F)F)cc3)n2)cc1OCC", "Potency": "inactive"}, {"smiles": "CCCCn1c(NC(=O)c2ccc(Br)o2)c(S(=O)(=O)c2ccccc2)c2nc3ccccc3nc21", "Potency": "inconclusive: 1.83 µM [inhibitor, partial curve, poor fit]"}, {"smiles": "O=C(NCCc1c[nH]c2ccccc12)Nc1ccccc1", "Potency": "inactive"}, {"smiles": "CCOC(=O)N1CCN(C(=O)Nc2cccc3ccccc23)CC1", "Potency": "inactive"}, {"smiles": "Cc1ccc(S(=O)(=O)N(CC(=O)N2CCCCCC2)c2ccccc2)cc1", "Potency": "inactive"}, {"smiles": "Cc1cc(C)cc(Nc2nc3ccccc3c(=O)[nH]2)c1", "Potency": "inconclusive: 29.1 µM [inhibitor, single point]"}, {"smiles": "CN(C)CCCOC(=O)c1ccccc1Cl", "Potency": "inconclusive: 0.1 µM [activator, full curve, poor fit]"}, {"smiles": "CCOC(=O)N=S(N)(=O)c1ccc(Cl)cc1", "note": "(stereo unspecified)", "Potency": "inactive"}, {"smiles": "O=C(CSc1nccc(=O)[nH]1)Nc1ccc2c(c1)OCCO2", "Potency": "inconclusive: 11.2 µM [activator, partial curve, poor fit]"}, {"smiles": "O=C(O)c1sccc1NC(=O)c1c(Cl)cccc1Cl", "Potency": "inconclusive: 22.4 µM [activator, single point]"}, {"smiles": "CC1(C)Cc2cccc(OCC(=O)N3CCN(S(=O)(=O)c4ccccc4)CC3)c2O1", "Potency": "inconclusive: 35.5 µM [activator, single point]"}, {"smiles": "CCn1c(=O)n(CC)c2cc(S(=O)(=O)N3CCc4ccccc43)ccc21", "Potency": "inconclusive: 18.3 µM [inhibitor, single point]"}, {"smiles": "CCC(=O)Oc1ccc2c(C)cc(=O)oc2c1C(=O)c1ccccc1", "Potency": "inconclusive: 0.891 µM [inhibitor, full curve, poor fit]"}, {"smiles": "Nc1ccc(Cc2nc3cc4ccccc4cc3[nH]2)cc1", "Potency": "inconclusive: 1.46 µM [inhibitor, full curve, poor fit]"}, {"smiles": "COCCn1c(=O)sc2ccccc2c1=O", "Potency": "inactive"}, {"smiles": "COc1ccc(-c2csc3ncnc(N4CCN(c5ccccc5OC)CC4)c23)cc1", "Potency": "inconclusive: 10 µM [inhibitor, partial curve, poor fit]"}, {"smiles": "CCOC(=O)c1[nH]c2ccccc2c1NC(=O)c1ccc(S(=O)(=O)N2CCOCC2)cc1", "Potency": "inactive"}, {"smiles": "CCCCC(=O)OC1=C(C(=O)c2ccccc2)N(C)S(=O)(=O)c2ccccc21", "Potency": "inconclusive: 8.91 µM [inhibitor, partial curve, poor fit]"}, {"smiles": "CCOC(=O)C1=C(C)NC2=C(C(=O)CC(C)(C)C2)C1c1cccc(C)n1", "note": "(stereo unspecified)", "Potency": "inactive"}, {"smiles": "Cn1nc(-c2ccc(C(=O)Nc3cccc(C(F)(F)F)c3)cc2)c2ccccc2c1=O", "Potency": "inconclusive: 4.47 µM [inhibitor, single point]"}, {"smiles": "CC(=O)NS(=O)(=O)c1ccc(NC(=O)c2ccc3c(c2)C(=O)N(CCC(C)C)C3=O)cc1", "Potency": "inactive"}, {"smiles": "NC(=O)[C@@H]1CCOc2c(I)cc([N+](=O)[O-])cc2C(=O)N[C@@H](CO)C(=O)NCC(=O)N1", "Potency": "inconclusive: 2.59 µM [activator, single point]"}, {"smiles": "COc1ccc(N2CC(NC(=O)N3CCc4ccccc43)CC2=O)cc1OC", "note": "(stereo unspecified)", "Potency": "inconclusive: 6.31 µM [activator, single point]"}, {"smiles": "CC(C)CC(=O)NC(=S)Nc1ccc(S(=O)(=O)N2CCCC2)cc1", "Potency": "inconclusive: 11.2 µM [inhibitor, single point]"}, {"smiles": "Cc1ccc(S(=O)(=O)NC(=NCC(=O)O)c2ccccc2)cc1", "Potency": "inactive"}, {"smiles": "O=C(Nc1nnc(C2CC2)s1)c1ccc(Cl)c(S(=O)(=O)N2CCc3ccccc3C2)c1", "Potency": "inconclusive: 14.1 µM [inhibitor, single point]"}, {"smiles": "O=C(Nc1cnn(C23CC4CC(CC(C4)C2)C3)c1)c1cnn2c(C(F)(F)F)cc(-c3ccco3)nc12", "Potency": "inactive and inconclusive: 20.6 µM [inhibitor, single point]"}, {"smiles": "O=c1c2cccnc2[nH]c(=S)n1CCCN1CCN(c2ccccc2F)CC1", "Potency": "inactive"}, {"smiles": "CC(C)(C)c1ccc(-c2csc(NNC3=NCCCCC3)n2)cc1", "Potency": "inconclusive: 18.3 µM [inhibitor, single point]"}, {"smiles": "C[C@H]1O[C@@H](O[C@H]2[C@@H](O)C[C@H](O[C@H]3[C@@H](O)C[C@H](O[C@H]4CC[C@@]5(C)[C@H](CC[C@@H]6[C@@H]5CC[C@]5(C)[C@@H](C7=CC(=O)OC7)CC[C@]65O)C4)O[C@@H]3C)O[C@@H]2C)C[C@H](O)[C@@H]1O", "Potency": "active: 0.058 µM"}, {"smiles": "COc1ccc(NC(=O)C2CCC(=O)N2C(=O)OCc2ccccc2)cc1", "note": "(stereo unspecified)", "Potency": "inactive"}, {"smiles": "Cc1ccc(NC(=S)NCCSc2ccc(Cl)cc2)cc1", "Potency": "inconclusive: 11.2 µM [inhibitor, single point]"}, {"smiles": "Cc1cc(C)cc(N=C2NC(=O)CS2)c1", "Potency": "inconclusive: 5.01 µM [inhibitor, full curve, poor fit]"}, {"smiles": "O=C(NCc1cccc(F)c1)c1cccc(OC2CCN(C(=O)C3CC3)CC2)c1", "Potency": "inconclusive: 35.5 µM [inhibitor, partial curve, poor fit]"}, {"smiles": "CN(C)/C(=N\\S(=O)(=O)c1ccccc1)c1ccc([N+](=O)[O-])cc1", "Potency": "inconclusive: 20 µM [activator, single point]"}, {"smiles": "OC(C1=CC(=Cc2ccncc2)c2ccccc21)c1ccncc1", "note": "(stereo unspecified)", "Potency": "inconclusive: 11.2 µM [inhibitor, partial curve, poor fit]"}, {"smiles": "O=C(COc1cccc2c1CCN(Cc1ccccc1F)C2=O)N1CCCCC1", "Potency": "inconclusive: 5.62 µM [inhibitor, partial curve, poor fit]"}]}]}
